Test results taken from article PMC9916828.
No constants are given. Whether binding was seen depends on the method and setting. In cells and extracts the contact can be indirect. Some binding calls cover weakened binding; strength is not graded here.

By UniProt entry, the sequences of proteins in these tests, tags left out. Residues count along the entry.
UniProt P63017: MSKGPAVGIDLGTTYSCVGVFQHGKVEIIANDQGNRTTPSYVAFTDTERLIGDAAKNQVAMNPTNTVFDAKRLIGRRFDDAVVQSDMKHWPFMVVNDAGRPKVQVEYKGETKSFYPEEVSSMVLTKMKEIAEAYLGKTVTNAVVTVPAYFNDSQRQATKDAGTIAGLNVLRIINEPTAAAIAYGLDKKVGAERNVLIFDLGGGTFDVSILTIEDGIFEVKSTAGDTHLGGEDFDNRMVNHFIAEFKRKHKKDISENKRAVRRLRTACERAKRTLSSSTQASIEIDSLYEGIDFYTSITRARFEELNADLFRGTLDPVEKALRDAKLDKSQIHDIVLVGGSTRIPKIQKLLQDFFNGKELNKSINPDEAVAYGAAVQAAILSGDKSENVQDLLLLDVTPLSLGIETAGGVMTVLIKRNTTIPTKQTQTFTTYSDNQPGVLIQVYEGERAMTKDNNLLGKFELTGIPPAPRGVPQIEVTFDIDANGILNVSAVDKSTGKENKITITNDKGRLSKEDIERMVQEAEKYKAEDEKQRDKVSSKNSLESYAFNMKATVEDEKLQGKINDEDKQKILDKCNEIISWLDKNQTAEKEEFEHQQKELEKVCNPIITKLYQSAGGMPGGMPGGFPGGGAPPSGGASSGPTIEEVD
UniProt P70168: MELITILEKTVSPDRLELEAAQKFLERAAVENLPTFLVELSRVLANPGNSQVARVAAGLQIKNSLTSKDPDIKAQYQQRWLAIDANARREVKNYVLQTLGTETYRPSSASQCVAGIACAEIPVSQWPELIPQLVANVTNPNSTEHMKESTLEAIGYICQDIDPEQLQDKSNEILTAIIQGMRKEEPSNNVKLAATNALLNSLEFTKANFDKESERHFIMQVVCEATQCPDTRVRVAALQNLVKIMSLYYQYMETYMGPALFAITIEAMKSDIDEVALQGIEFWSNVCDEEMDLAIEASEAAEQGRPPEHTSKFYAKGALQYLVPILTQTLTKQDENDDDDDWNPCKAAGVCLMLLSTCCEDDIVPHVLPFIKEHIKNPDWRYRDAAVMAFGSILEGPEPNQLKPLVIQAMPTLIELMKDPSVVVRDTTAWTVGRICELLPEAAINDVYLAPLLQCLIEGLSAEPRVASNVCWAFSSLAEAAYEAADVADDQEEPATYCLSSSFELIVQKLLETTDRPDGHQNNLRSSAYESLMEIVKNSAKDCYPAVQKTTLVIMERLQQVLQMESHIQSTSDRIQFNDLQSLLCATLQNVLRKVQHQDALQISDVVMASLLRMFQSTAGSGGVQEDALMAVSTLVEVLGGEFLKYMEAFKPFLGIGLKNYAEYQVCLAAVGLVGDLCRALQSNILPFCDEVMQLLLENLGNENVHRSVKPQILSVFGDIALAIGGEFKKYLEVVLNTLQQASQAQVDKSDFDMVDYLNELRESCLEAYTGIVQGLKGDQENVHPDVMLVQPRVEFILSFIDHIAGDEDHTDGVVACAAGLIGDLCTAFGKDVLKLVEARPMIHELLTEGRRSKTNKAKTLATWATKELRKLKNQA
UniProt P16858: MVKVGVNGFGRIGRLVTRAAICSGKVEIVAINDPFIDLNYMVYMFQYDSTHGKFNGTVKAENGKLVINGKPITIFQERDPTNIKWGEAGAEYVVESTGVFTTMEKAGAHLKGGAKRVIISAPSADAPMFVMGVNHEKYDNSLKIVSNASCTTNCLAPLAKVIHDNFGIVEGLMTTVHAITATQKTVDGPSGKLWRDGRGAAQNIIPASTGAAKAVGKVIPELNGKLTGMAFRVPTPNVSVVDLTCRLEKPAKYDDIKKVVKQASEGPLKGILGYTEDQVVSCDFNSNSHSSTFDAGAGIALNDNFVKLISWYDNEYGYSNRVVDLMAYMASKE
UniProt P11627, residues 20-1260: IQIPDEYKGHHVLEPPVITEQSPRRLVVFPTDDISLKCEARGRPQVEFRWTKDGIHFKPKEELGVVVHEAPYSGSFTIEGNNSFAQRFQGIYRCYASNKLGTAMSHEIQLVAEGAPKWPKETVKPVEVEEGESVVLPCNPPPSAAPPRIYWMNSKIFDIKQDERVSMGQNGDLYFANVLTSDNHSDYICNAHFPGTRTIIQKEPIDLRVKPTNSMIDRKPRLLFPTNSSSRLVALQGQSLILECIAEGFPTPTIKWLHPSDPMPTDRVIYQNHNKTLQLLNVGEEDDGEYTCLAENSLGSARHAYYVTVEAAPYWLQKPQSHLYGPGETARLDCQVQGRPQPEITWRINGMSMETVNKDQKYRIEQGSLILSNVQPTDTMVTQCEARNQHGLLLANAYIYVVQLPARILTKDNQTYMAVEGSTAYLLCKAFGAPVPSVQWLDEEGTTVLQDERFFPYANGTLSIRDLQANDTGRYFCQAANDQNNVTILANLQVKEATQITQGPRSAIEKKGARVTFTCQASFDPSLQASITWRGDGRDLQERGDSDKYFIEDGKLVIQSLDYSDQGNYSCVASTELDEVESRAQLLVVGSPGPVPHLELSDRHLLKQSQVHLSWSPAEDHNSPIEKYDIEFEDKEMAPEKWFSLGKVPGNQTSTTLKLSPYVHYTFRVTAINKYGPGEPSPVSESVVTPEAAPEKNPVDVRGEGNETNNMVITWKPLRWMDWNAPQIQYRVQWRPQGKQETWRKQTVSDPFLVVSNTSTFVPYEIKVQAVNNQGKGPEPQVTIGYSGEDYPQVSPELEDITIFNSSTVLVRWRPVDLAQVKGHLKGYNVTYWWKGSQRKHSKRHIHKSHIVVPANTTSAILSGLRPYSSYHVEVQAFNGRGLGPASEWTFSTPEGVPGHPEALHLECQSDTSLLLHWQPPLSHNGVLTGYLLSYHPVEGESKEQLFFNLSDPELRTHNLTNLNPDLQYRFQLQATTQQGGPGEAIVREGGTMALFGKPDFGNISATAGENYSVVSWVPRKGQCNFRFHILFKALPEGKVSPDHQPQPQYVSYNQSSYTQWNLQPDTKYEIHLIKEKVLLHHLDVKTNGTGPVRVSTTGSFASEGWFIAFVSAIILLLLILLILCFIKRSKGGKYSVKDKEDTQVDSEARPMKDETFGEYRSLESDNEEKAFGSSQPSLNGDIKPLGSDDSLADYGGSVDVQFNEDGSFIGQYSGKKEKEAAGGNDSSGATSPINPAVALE

Columns and labels:
Assay in all cases: proximity ligation; fixed, permeabilised cultured mouse cortical (and cerebellar) neurons from wild-type or L1 mutant mice; mouse L1 antibody C-2 with goat or rabbit antibodies against the partner, or rabbit L1 antibody ab12399 with mouse antibodies; cells treated with vehicle, 1 µM aprotinin, 50 µg/mL L1 antibody 557 or siRNAs
[1] = biological target: heat shock cognate protein 71 kDa (Hsc70), endogenous mouse (mouse (endogenous in cultured cortical neurons)) (UniProt P63017)
[2] = biological target: importin β1 (impβ1), endogenous mouse (mouse (endogenous in cultured cortical neurons)) (UniProt P70168)
[3] = biological target: T1, vitamin D receptor (VDR), endogenous mouse (mouse (endogenous in cultured cortical neurons)) (UniProt P48281)
T1 sequence: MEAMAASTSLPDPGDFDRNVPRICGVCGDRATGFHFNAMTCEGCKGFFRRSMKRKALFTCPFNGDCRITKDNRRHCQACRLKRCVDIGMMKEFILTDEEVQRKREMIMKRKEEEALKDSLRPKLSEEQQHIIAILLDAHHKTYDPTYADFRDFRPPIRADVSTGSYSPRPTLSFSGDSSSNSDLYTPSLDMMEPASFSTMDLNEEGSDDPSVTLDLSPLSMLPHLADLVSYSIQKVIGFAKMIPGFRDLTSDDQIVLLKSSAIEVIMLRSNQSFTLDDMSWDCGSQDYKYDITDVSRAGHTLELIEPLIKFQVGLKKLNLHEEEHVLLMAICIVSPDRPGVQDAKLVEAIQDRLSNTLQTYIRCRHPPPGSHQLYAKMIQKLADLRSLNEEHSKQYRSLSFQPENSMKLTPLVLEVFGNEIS

[4] = biological target: T2, paraspeckle component 1 (PSPC1), endogenous mouse (mouse (endogenous in cultured cortical neurons)) (UniProt Q8R326)
T2 sequence: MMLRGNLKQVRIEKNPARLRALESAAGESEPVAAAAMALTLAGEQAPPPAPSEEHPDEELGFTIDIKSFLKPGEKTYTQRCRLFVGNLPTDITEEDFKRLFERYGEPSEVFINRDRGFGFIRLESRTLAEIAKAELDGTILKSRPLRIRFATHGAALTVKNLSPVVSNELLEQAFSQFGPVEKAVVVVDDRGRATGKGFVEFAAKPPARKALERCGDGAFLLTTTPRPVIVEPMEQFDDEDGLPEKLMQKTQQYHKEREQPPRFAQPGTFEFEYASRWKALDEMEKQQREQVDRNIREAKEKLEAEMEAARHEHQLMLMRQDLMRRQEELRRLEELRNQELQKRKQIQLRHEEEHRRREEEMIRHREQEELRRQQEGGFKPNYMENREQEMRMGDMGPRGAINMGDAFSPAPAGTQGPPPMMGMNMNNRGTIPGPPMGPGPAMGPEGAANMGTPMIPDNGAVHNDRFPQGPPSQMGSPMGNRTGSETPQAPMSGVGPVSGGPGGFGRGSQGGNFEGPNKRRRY

[5] = biological target: glyceraldehyde 3-phosphate dehydrogenase (GAPDH), endogenous mouse (mouse (endogenous in cultured cortical neurons)) (UniProt P16858)
[6] = biological target: T3, topoisomerase 1 (TOP1), endogenous mouse (mouse (endogenous in brain and cultured neurons)) (UniProt Q04750)
T3 sequence: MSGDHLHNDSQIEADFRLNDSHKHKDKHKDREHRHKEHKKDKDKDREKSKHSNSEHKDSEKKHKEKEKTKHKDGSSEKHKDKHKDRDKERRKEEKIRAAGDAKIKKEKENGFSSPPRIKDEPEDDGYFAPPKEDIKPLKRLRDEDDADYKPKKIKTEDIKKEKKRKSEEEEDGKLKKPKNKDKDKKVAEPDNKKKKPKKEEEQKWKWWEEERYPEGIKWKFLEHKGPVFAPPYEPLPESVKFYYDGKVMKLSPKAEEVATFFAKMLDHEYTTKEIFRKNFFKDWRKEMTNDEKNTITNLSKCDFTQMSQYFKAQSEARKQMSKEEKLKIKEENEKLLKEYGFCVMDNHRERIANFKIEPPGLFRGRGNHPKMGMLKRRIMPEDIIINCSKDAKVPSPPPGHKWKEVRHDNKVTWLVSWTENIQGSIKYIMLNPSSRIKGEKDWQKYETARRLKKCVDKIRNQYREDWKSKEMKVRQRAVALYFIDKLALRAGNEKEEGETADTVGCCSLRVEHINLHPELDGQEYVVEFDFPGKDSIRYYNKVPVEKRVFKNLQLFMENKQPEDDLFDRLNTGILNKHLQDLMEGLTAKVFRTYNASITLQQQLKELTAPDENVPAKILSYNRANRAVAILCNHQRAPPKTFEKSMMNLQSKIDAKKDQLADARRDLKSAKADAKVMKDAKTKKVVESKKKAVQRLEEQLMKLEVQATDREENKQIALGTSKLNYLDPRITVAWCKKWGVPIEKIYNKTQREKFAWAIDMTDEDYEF

Measured: binding

cell adhesion molecule L1, endogenous in wild-type mouse neurons (from UniProt P11627 20-1260)
binds: all assays above
